Test results published in patent US20250000946A1.
Positions count from the first letter of the chain named. These are yes or no findings as the source states them, for the method shown. Some results given as binding are weak or reduced against the parent protein; the word gives no strength. For part of these data: Sequences can lack the tags named with a protein.

The chains behind the UniProt entries cited, without tags or fusion partners. Where a name states a change or a piece, a line headed by the entry shows the natural chain unless it says otherwise.
UniProt P01589: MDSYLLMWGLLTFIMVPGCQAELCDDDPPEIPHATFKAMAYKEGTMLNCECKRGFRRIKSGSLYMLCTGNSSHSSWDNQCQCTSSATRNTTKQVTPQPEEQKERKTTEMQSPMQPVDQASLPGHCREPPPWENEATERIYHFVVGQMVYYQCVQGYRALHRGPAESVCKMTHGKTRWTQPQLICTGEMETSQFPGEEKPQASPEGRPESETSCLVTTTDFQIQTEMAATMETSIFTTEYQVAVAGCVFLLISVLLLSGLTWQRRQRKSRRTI

B1: W3XX115-T2U0.E44-30.uIgG4V1 (Fc fusion)
chain: APTSSSTKKTQLQLEHLLLDLQMILNGINNYKNPKLTRMLTFKFYMPKKATELKHLQCLEEELKPLEEVLNLAQSKNFHLRPRDLISNINVIVLELKGSETTFMCEYADETATIVEFLNRWITFCQSITESKYGPPCPPCPAPEFLGGPSVFLFPPKPKDTLMISRTPEVTCVVVDVSQEDPEVQFNWYVDGVEVHNAKTKPREEQFNSTYRVVSVLTVLHQDWLNGKEYKCKVSNKGLPSSIEKTISKAKGQPREPQVYTLPPCQEEMTKNQVSLWCLVKGFYPSDIAVEWESNGQPENNYKTTPPVLDSDGSFFLYSRLTVDKSRWQEGNVFSCSVMHEALHNHYTQKSLSLSLG
heavy: EIQLQQSGPELVKPGASVKVSCKASGYSFTDYNMYWVKQSHGESLEWIGYIDPYNGGTRYNQKFKGKATLTVDKSSSTAFMHLNSLTSEDSAVYYCARNGHWDGAWFAYWGQGTLVTVSAASTKGPSVFPLAPCSRSTSESTAALGCLVKDYFPEPVTVSWNSGALTSGVHTFPAVLQSSGLYSLSSVVTVPSSSLGTKTYTCNVDHKPSNTKVDKRVESKYGPPCPPCPAPEFLGGPSVFLFPPKPKDTLMISRTPEVTCVVVDVSQEDPEVQFNWYVDGVEVHNAKTKPREEQFNSTYRVVSVLTVLHQDWLNGKEYKCKVSNKGLPSSIEKTISKAKGQPREPQVCTLPPSQEEMTKNQVSLSCAVKGFYPSDIAVEWESNGQPENNYKTTPPVLDSDGSFFLVSRLTVDKSRWQEGNVFSCSVMHEALHNHYTQKSLSLSLG
light: DIQMNQSPSSLSASLGDTITITCHASQNINVWLSWYQQKPGNIPKLLIYKASNLHTGVPSRFSGSRSGTGFTLTISSLQPEDIATYYCHQGQSYPFTFGSGTKLEIKRTVAAPSVFIFPPSDEQLKSGTASVVCLLNNFYPREAKVQWKVDNALQSGNSQESVTEQDSKDSTYSLSSTLTLSKADYEKHKVYACEVTHQGLSSPVTKSFNRGEC
B2: W3XX115-T2U0.E44-39.uIgG4V322 (Fc fusion)
chain: B1 chain with I128A, T129I, F145A, L146A
heavy: B1 heavy with F234A, L235A
light: B1 light
B3: W3XX115-T2U0.E44-31.uIgG4V322 (Fc fusion)
chain: B1 chain with F42V, T129L, F145A, L146A
heavy: B1 heavy with F234A, L235A
light: B1 light
B4: W3XX115-T2U0.E44-32.uIgG4V322 (Fc fusion)
chain: B1 chain with F42I, T129L, F145A, L146A
heavy: B1 heavy with F234A, L235A
light: B1 light
B5: W3XX115-T2U0.E44-33.uIgG4V322 (Fc fusion)
chain: B1 chain with R38W, T129L, F145A, L146A
heavy: B1 heavy with F234A, L235A
light: B1 light

How the values were obtained:
[1] = biological target: Human IL-2Rβ/γ (intermediate affinity IL-2 receptor) (human) (UniProt P14784+P31785); assay: FACS on HH cells (IL-2Rβ/γ), 30 min at 4 °C, PE anti-human Fc, MFI
[2] = biological target: Human IL-2Rα/β/γ complex (high affinity IL-2 receptor) (human) (UniProt P01589+P14784+P31785); assay: FACS on MJ20 cells (IL-2Rα/β/γ), 30 min at 4 °C, PE anti-human Fc, MFI
[3] = biological target: T1, W369-hPro2.ECD.His, IL2Rβ ECD (human) (UniProt P14784); assay: SPR Biacore 8K
T1 sequence: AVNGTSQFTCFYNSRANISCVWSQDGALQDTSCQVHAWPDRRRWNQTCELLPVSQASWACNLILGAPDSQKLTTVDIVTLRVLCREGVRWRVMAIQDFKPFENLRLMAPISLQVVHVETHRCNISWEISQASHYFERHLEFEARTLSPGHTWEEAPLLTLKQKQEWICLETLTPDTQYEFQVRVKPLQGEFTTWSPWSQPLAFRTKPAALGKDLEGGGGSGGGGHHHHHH

[4] = biological target: T2, W369-hPro1.ECD.His, IL-2Rγ ECD (human) (UniProt P31785); assay: SPR; variant pre-complexed 1:1 with IL-2Rβ, IL-2Rγc on the chip
T2 sequence: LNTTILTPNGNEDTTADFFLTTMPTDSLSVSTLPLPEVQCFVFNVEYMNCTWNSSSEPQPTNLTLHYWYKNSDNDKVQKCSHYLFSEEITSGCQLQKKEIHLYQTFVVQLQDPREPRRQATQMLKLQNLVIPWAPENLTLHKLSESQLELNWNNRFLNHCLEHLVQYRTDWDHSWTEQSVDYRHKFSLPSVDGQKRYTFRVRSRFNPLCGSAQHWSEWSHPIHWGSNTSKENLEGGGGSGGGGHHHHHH

[5] = biological target: T2, W369-hPro1.ECD.His, IL-2Rγ ECD (human); assay: SPR (Biacore 8K): variant pre-mixed 1:1 with human IL-2Rβ ECD (W369-hPro2.ECD.His), injected over immobilised human IL-2Rγc [panel 1 of the lower row]

Binder | binding [1] | binding [2] | binding [3] | binding [4] | binding [5]
B1 | binds |  |  |  | 
B2 |  | binds |  |  | 
B3 | binds |  |  |  | 
B4 | binds |  |  |  | 
B5 | binds | binds | binds | binds | binds
